{"source": "patent US20190224170A1", "about": "“THERAPIES AND METHODS TO TREAT INFLAMMATORY GASTROINTESTINAL DISEASES AND DISORDERS” (The Regents of the University of California, priority 2018, published 2019)", "key": {"phospho-p70S6 kinase": {"system": "phospho-p70S6 kinase", "test": "Phospho-p70S6 kinase expression in CD4+ T cells with and without rapamycin (flow cytometry)", "type": "cell-based, human", "conditions": "biotin-deficient CD4+ T cells, rapamycin 100 ng/mL, 3 d"}, "[1]": {"system": "anti-CD3/CD28-stimulated CD4+ T cells", "test": "Cytokines in culture supernatants of CD4+ T cells treated or not with rapamycin (ELISA)", "type": "cell-based, human"}, "[2]": {"system": "systemic lupus erythematosus patients", "conditions": "in vitro, after exposure to rapamycin; cited from earlier work"}, "[3]": {"conditions": "biotin-deficient cells treated with rapamycin (100 ng/mL, 3 d) vs biotin-deficient control"}}, "note": "At least one compound was matched to its structure with a doubt left."}
{"compound": "CO[C@H]1C[C@@H]2CC[C@@H](C)[C@@](O)(O2)C(=O)C(=O)N2CCCC[C@H]2C(=O)O[C@H]([C@H](C)C[C@@H]2CC[C@@H](O)[C@H](OC)C2)CC(=O)[C@H](C)/C=C(\\C)[C@@H](O)[C@@H](OC)C(=O)[C@H](C)C[C@H](C)/C=C/C=C/C=C/1C", "note": "[rapamycin]", "values": [{"measurement": "p70S6 kinase expression (upregulation in biotin deficiency)", "setting": "phospho-p70S6 kinase", "result": "inhibit"}, {"measurement": "level of IL-10 in culture supernatant", "setting": "[1]; biotin-deficient and biotin-sufficient cells after rapamycin (100 ng/mL, 3 d)", "result": "reduced significantly"}, {"measurement": "level of IFN-γ in culture supernatant", "setting": "[1]; [3]", "result": "significantly reduced"}, {"measurement": "level of IL-17 in culture supernatant", "setting": "[1]; [3]", "result": "significantly reduced"}, {"measurement": "IL-17 expression", "setting": "[2]", "result": "inhibition"}, {"measurement": "expression of Tregs", "setting": "[2]", "result": "increased"}]}
